Among all 330,000 compounds or so, about 2,800 (0.85%) were called active. Inconclusive results, whose numbers are uncertain, are shown with a selection of clear calls.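 Rule for the calls: active = mean inhibition across replicates of 60% or more, whatever share of single replicates reaches that level; inconclusive = some that reach 60%, reason not given; inactive = mean inhibition across replicates below 60%.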 Non-standard residues stand in square brackets, D forms with d. Residues, ends and D or L forms follow the SMILES beside them. ξ: configuration not given here. *: point of attachment. ξNMe2Val = CC(C)C(C(=O)*)N(C)C; NMeV = CN[CH](C(=O)O)C(C)C; NHBn = c1ccc(CN*)cc1
Assay: inhibitors of MITF-dependent TRPM1 promoter reporter, primary screen, cell-based, SK-MEL-5, single point, luciferase (AID 488899)
Settings: SK-MEL-5 TRPM1 promoter luciferase, 24 h; at 12.5 µM; hits give high values

Row | Compound | inhibition
1 | CC(C)(C)n1cc(C(=O)c2ccccc2)cc1-c1ccccc1 | inactive: -3.1%
2 | Cc1cccc(N2C(=O)NC(=O)/C(=C\c3cccn3-c3ccc(Cl)cc3)C2=O)c1 | inconclusive: 67.3%
3 | Cc1nc2cc(-c3ccc(Cl)cc3)nn2c(C)c1CCC(=O)N1CCC2(CC1)OCCO2 | inconclusive: 63.1%
4 | CN1CCC(N(C)c2nc(-c3ccc([N+](=O)[O-])cc3)nc3ccccc23)CC1 | inconclusive: 60.7%
5 | O=c1[nH]c(=S)[nH]c(O)c1N=Nc1cc2c(cc1[N+](=O)[O-])OCO2 | inconclusive: 61%
6 | CC(C)C(NC(=O)C(C(C)C)N(C)C)C(=O)N(C)C(C(=O)N1CCCC1C(=O)N1CCCC1C(=O)NCc1ccccc1)C(C)C (configuration not stated) (ξNMe2Val-V[NMeV]PP-NHBn; configuration not given here) | active: 64.6%
7 | O=C1NC(=O)C(=Cc2ccc(-c3cc(Cl)ccc3[N+](=O)[O-])o2)C(=O)N1 | inconclusive: 61.6%
8 | C[C@]12CC[C@H]3C(CCC4(O)CC(O)CC[C@]34C=O)C1=CC[C@H]2c1ccc(=O)oc1 (some centres not stated) | inconclusive: 60.9%
9 | COC(=O)C1=C(c2ccc(S(C)(=O)=O)cc2)C[C@@H]2CC[C@H]1N2C(=O)NC1CCCCC1 | inactive: -0.073%
10 | CCCCCCCC(=O)NC(Oc1ccccc1[N+](=O)[O-])C(Cl)(Cl)Cl (configuration not stated) | inactive: 8.02%
11 | Cc1ccc(N2C(=O)NC(=O)/C(=C\C=C\c3ccco3)C2=O)cc1 | active: 102%
12 | CCn1c(NN=O)nc2ccccc21 | inconclusive: 60.5%
13 | CCOc1cccc(CNCCc2c(C)[nH]c3ccc(OC(F)(F)F)cc23)c1O | active: 97.5%
14 | Brc1ccc2c(c1)C(OC1CN3CCC1CC3)c1ccccc1CS2 (configuration not stated) | inconclusive: 62%
15 | O=C1NC(=O)N(Cc2ccco2)C(=O)/C1=C/C=C/c1ccco1 | active: 95.4%
16 | CN1C(=O)/C(=C/c2cccn2-c2ccc3ccccc3c2)C(=O)NC1=S | inconclusive: 67.9%
17 | CC1=CC2OC3CC4OC(=O)C=CC=CC(C(C)O)OCC(O)C(C)CC(=O)OCC2(CC1O)C4(C)C31CO1 (configuration not stated) | active: 89.8%

Given as tab-separated lines: two of the compounds above
Row	Compound	inhibition
7	O=C1NC(=O)C(=Cc2ccc(-c3cc(Cl)ccc3[N+](=O)[O-])o2)C(=O)N1	inconclusive: 61.6%
8	C[C@]12CC[C@H]3C(CCC4(O)CC(O)CC[C@]34C=O)C1=CC[C@H]2c1ccc(=O)oc1 (some centres not stated)	inconclusive: 60.9%

Source: PubChem BioAssay AID488899 (Broad Institute, 2010)
